# In the supplement of paper PMC10338343:
# ± gives the standard deviation. The list shows a part of the results, in another mix than the full data. The uncertainty is large for many entries.
# Assays:
# [1] = system: MILI (PIWIL2) piRISC loaded with piRNA #1 (26 nt); assay: pre-steady-state target cleavage rate (min^-1); higher = faster piRNA-guided slicing of the target; details: guide: piRNA #1 5'p-UGAGGUAGUAGGUUGUAUAGUAUCCA; auxiliary factor: 500 nM mouse GTSF1;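 further: 1 nM active piRISC with 0.1 nM target library at 33 °C single turnover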
# In short: (§1)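 In HEPES–potassium acetate buffer at 33 °C, […] transcribed, DNA-blocked target RNA library was mixed with 1 nM active affinity-purified piRISC carrying one synthetic guide, with or without 500 nM GTSF1 partner protein, for 0–8 or 0–960 min. Uncleaved targets were sequenced and normalised to depth and to weakly complementary targets; three trials were pooled and k3 was capped at 0.0001 min^-1. The pre-steady-state cleavage rate followed from a burst-and-steady-state fit.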
# [2] = system: EfPiwi piRISC loaded with piRNA #1 (26 nt); assay: pre-steady-state target cleavage rate (min^-1); guide: piRNA #1 5'p-UGAGGUAGUAGGUUGUAUAGUAUCCA; MIWI and MILI are mouse PIWI proteins and EfPiwi is from a freshwater sponge; tags in brackets are library labels; higher = faster piRNA-guided slicing of the target; details: auxiliary factor: 500 nM Ephydatia muelleri Gtsf1
# In short: as §1
Sequence,pre-steady-state target cleavage rate [1],pre-steady-state target cleavage rate [2]
GGAGAGGAUACUAUACAACCAUGUACCUCA,0.000697 ± 0.0061,0.000786 ± 0.0038
GGAGAGGAUACUAUUCAACCUAGUACCUCA,0.00322 ± 0.0038,0.00256 ± 0.0017
GGAGAGGAUACUAUUCAACCAACUACCUCA,0.00614 ± 0.0021,0.00354 ± 0.0021
GGAGACCUAUCUAUACAACCAACUAGCUCA,0.00248 ± 0.0039,0.000814 ± 0.0064
GGAGACCAUACUAUACAACCUUGUACCUCA,0.000848 ± 0.0068,0.00364 ± 0.0051
GGAGACGAUAGUAUACAAGCUACUACCUCA,0.176 ± 0.016,0.0022 ± 0.0027
GGAGACCUAACUAUACAACCUACUUGGAGA [g7:g21:cont:t1A],0.00193 ± 0.0083,0.0015 ± 0.0054
GGAGACCUUACUAUACAUCGUACUACCUCA,0.0364 ± 0.0047,0.00232 ± 0.0043
GGAGUGCAUACUAUACAACCUACUUCCUCA,0.00653 ± 0.0022,0.00155 ± 0.0024
GGAGACCAUACUAUACAAGCUACAACCUCA,0.212 ± 0.022,0.00169 ± 0.0029
GGAGACCUAUGAUUACUACCAACUACCUCA,0.00118 ± 0.0054,0.00029 ± 0.011
GGAGACCUAUGAUAACAACCUACUAGGAGA [g6:g16:cont:t1A],0.000142 ± 0.026,0.000296 ± 0.015
GGAGACCUAUGAAUAGAACCUACUAGCUCA,0.000213 ± 0.013,< 0.0001
GGAGACCUAUGUAUACAACCUAGUACGUCA,0.00191 ± 0.0046,0.00076 ± 0.0024
GGAGAGGAUACUAUACAAGCCUACUACCUCA,0.00283 ± 0.0037,0.00835 ± 0.005
GGAGACCAUACUUUACAACCUACAACCUCA,0.14 ± 0.018,0.00301 ± 0.0034
GGAGACCUAUGAAUACAACGAACUACCUCA,0.00208 ± 0.0032,0.000167 ± 0.031
GGAGAGGAUACUAUACAACCUAGAUGGAGA [g9:g25:cont:t1A],0.00152 ± 0.0049,0.00125 ± 0.0032
GGAGACCUAUGAUAUCAUCCUACAACCUCA,0.00348 ± 0.003,0.000203 ± 0.01
GGAGACGAAACUAUACAACCUACUACCACA,0.219 ± 0.031,0.00352 ± 0.0032
GGAGACCUAUGAUUUGAACCUACUACCUCA,0.000307 ± 0.01,0.000256 ± 0.0097
GGAGACCUUACUAUACAACCUUCUUCCUCA,0.00391 ± 0.0031,0.00255 ± 0.0053
GGAGACCUAACUAUACAUCCUAGUACCUCA,0.0577 ± 0.02,0.00456 ± 0.0048
GGAGUGGUUACUAUACAACCAACUACCUCA,0.00796 ± 0.0019,0.0036 ± 0.0014
GGAGACCUAUGAUAUGUACGUACUUCCUCA,0.00021 ± 0.023,0.000661 ± 0.009
GGAGUGGAUACUAUACAACGAUGAUGGAGA [g12:g26:cont:t1A],0.000514 ± 0.0092,0.00221 ± 0.0033

Sequence,pre-steady-state target cleavage rate [1],pre-steady-state target cleavage rate [2]
GGAGACCUAUGAUAUGUACCUACUCCCUCA,0.000169 ± 0.018,0.000107 ± 0.022
GGAGAGGAUACUAUACAAUCUACUACCUCA,0.129 ± 0.0097,0.0116 ± 0.0062
GGAGACCUAUGUAUACAACCUUCUACCUCA,0.00351 ± 0.0017,0.00129 ± 0.005
GGAGACGAUACUAUAGAACCUACUACCACA,0.0976 ± 0.015,0.0013 ± 0.0026
GGAGACCUAUGAAUAGAUCCUACUACCUCA,0.00208 ± 0.0027,0.00025 ± 0.011
GGAGACGAUACUAUACAACCUACUACCUCU [g2:g24:cont:t1U],0.24 ± 0.019,1.35 ± 0.49
GGAGACCUAUGAUUAGAACCUACAACCUCA,0.000147 ± 0.032,0.000262 ± 0.023
GGAGACCAUACUAUACAAGGAUGAUGGAGA [g13:g23:cont:t1A],0.00018 ± 0.034,0.000368 ± 0.014
GGAGACCUAUCUAUACAAGCUAGUACCUCA,0.107 ± 0.017,0.00157 ± 0.0032
GGAGAGGAUACUAAACAUCCUACUACCUCA,0.276 ± 0.022,0.00524 ± 0.0024
GGAGACCUAUGAUAUAAACCUACUACCUCA,0.000968 ± 0.0066,0.000695 ± 0.0074
GGAGACCUAUGAUAUCAACCUCACUACCUCA,0.000395 ± 0.0082,0.000253 ± 0.013
GGAGACCUUACUAUACGAACCUACUACCUCA,0.000356 ± 0.021,0.00215 ± 0.0036
GGAGACGAUACUAUACAACCAUGAUGGAGA [g11:g24:cont:t1A],0.000137 ± 0.023,0.000604 ± 0.0065
GGAGAGGAUACUAUACAUCCUACUAGCUCA,0.0023 ± 0.0045,0.00277 ± 0.0019
GGAGACCUUACUAUACAUCCUUCUACCUCA,0.0405 ± 0.0086,0.00288 ± 0.0037
GGAGACCUUACUAUUCAUCCUACUACCUCA,0.231 ± 0.018,0.00166 ± 0.0038
GGAGAGGAUACUAUACGACCUACUACCUCA,0.121 ± 0.0093,0.117 ± 0.05
GGAGACCUAACUAUAGAACCUACUACCUCA,0.131 ± 0.021,0.0023 ± 0.0045
GGAGACCUAUGAUAACGAACCUACUACCUCA,0.000586 ± 0.0067,0.000435 ± 0.015
GGAGUGGAAACUAUACAACCAACUACCUCA,0.0025 ± 0.006,0.0049 ± 0.0032
GGAGACCUAUGAUAUGUAGCUACUAGCUCA,0.000498 ± 0.011,0.000542 ± 0.0094
GGAGUGGAUAGUAUACUACCUACUACCUCA,0.113 ± 0.0097,0.00287 ± 0.0021
GGAGAGGAUACUAUACAACCUACAACGUCA,0.0017 ± 0.0039,0.00371 ± 0.0017
GGAGACCUAUGAUAAGAACCUACUACCUCA,0.000666 ± 0.0066,0.000624 ± 0.0066
GGAGACGAUACUAUACUAACCUACUACCUCA,0.0018 ± 0.0042,0.00448 ± 0.0044

# Two successive entries out of the list so far, for reference:
Sequence,pre-steady-state target cleavage rate [1],pre-steady-state target cleavage rate [2]
GGAGACCUAUGAUAUCAUCCUACAACCUCA,0.00348 ± 0.003,0.000203 ± 0.01
GGAGACGAAACUAUACAACCUACUACCACA,0.219 ± 0.031,0.00352 ± 0.0032
